The target of the test is T1, AtTCTP-GFP (line 35S::AtTCTP-GFP) (Arabidopsis thaliana) (UniProt P31265).
T1 sequence: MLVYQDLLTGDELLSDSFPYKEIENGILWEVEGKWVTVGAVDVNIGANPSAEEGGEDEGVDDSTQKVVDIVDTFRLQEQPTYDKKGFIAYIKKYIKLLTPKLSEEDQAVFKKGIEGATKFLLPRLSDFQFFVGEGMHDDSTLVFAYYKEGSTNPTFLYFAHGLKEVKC
As to the kind of experiment: affinity purification with mass spectrometry; anti-GFP immunoprecipitation (uMACS GFP Isolation Kit) from protein extracts of Arabidopsis line 35S::AtTCTP-GFP; Col-0 and 35S::GFP as controls; proteins seen by silver staining of the SDS-PAGE gel.

No constants are given. Whether binding was seen depends on the method and setting. Binding seen in cells or lysates may run through a third protein. A yes stands for co-enrichment or nearness to the bait. Other partners may have been found. Sequences can lack the tags named with a protein.

B1: AtCSN4 (endogenous), subunit 4 of the COP9 Signalosome (protein, UniProt Q8L5U0 1-397)
chain: MDEALTNASAIGDQRQKIEQYKLILSSVLSSNDLLQAQRFIDHILSDDVPLVVSRQLLQSFAQELGRLEPETQKEIAQFTLTQIQPRVVSFEEQALVIREKLAGLYESEQEWSKAAQMLSGIDLDSGMRAVDDNFKLSKCIQIARLYLEDDDAVNAEAFINKASFLVSNSQNEVLNLQYKVCYARILDMKRKFLEAALRYYGISQIEQRQIGDEEIDENALEQALSAAVTCTILAGAGPQRSRVLATLYKDERCSKLKIYPILQKVYLERILRRPEIDAFSEELRPHQKASLPDKSTVLDRAMIEHNLLSASKLYTNIRFDELGTLLAIDPRKAEKIAANMIGQDRMRGSIDQEEAVIHFEDDVEELQQWDQQISGLCQALNDILDGMAKKGMSVPV
On to B1, for which the binding result was “binds”.

Values taken from publication PMC6368322.
